Laboratory results reported in paper PMC8671951.
Construct, isoform or probe ends are uncertain for at least one entry. For part of these data: Weaker means in comparison with the reference protein, sequence or condition of that experiment. For part of these data: At least one result comes from cells or an extract, where the contact may be indirect.

Protein sequences, listed by entry. Tags and fused reporters are not part of them. Residues count along the entry.
UniProt P16070, 21-178: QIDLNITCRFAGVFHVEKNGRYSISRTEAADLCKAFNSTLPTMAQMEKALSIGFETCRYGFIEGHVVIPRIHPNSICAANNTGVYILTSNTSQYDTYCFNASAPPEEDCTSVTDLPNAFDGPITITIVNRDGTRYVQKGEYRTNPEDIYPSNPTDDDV

What was measured:
Assay in all cases: sandwich ELISA
CD44 HABD = CD44 HABD (UniProt P16070); conditions: 5 mM Mg2+, hardly associated (Results), 'does not bind' (Discussion); ELISA: 1X binding buffer (DPBS, 4.5 g/L glucose, 5 mM MgCl2, 100 mg/L yeast tRNA, 1 g/L BSA), room temperature, 1 h; pH not stated; recombinant protein; protein details: His; single-stranded DNA
CD44s (standard isoform) = conditions: 5 mM Mg2+; ELISA: 1X binding buffer (DPBS, 4.5 g/L glucose, 5 mM MgCl2, 100 mg/L yeast tRNA, 1 g/L BSA), room temperature, 1 h; pH not stated; protein in a lysate after overexpression; single-stranded DNA
CD44E (CD44v8-10) = conditions: 5 mM Mg2+; ELISA: 1X binding buffer (DPBS, 4.5 g/L glucose, 5 mM MgCl2, 100 mg/L yeast tRNA, 1 g/L BSA), room temperature, 1 h; pH not stated; protein in a lysate after overexpression; single-stranded DNA

In the case of “ATCCAGAGTGACGCAGCATCGCAACGATTAGTATGCACCCACCGTATAGGTTGGTCTCTGGACACGGTGGCTTAGT [CD44-Apt1, biotin-labelled]”, the binding result (CD44 HABD) is reported as “binds more weakly”, the Kd (CD44s (standard isoform)) is reported as 2.09 nM and the Kd (CD44E (CD44v8-10)) is reported as 1.22 nM.
